PubChem BioAssay AID328 (DTP/NCI, 2004)
The list shows only some results of the screen, not a fair sample: it covers a few groups of compounds. Not every dose and run of a compound is shown. T/C gives the treated animals as a percentage of the vehicle group. Where survival is the endpoint, the PubChem record calls one and a half times the control and up active, and a quarter to a half above the control has no call in these data; cut-offs in other NCI protocols can differ. Some T/C values are marked as having no survivor count here; that says nothing about deaths at the dose. Schedules are NCI's codes, taken here to give the interval after Q, in days (D) or hours (H), and the number of doses after X. Some doses were run more than once; the values are given in rising order.

Test system: BDF1 mice, P388 leukemia ip, median survival T/C
Test: NCI In Vivo Anticancer Drug Screen. Data for tumor model P388 Leukemia (intraperitoneal) in B6D2F1 (BDF1) mice
Settings: T/C endpoint: median survival time, higher T/C = longer survival
Method: The antitumor activity of compounds was measured in mice bearing transplantable tumors. Survival or tumor size were measured and the results are expressed as the measurement made in the treated group (T) divided by the measurement made in the vehicle treated control group (C). The tumor model used in this assay is P388 Leukemia (intraperitoneal) in B6D2F1 (BDF1) mice

CC1(C)NC(=O)N(CCN(CCCl)CCCl)C1=O
T/C (dose: 0.04 mg/kg/injection, schedule: Q01DX009 (ip), vehicle: Klucel (hydroxypropylcellulose) (HPC)): 102 % of control [survivor count not shown]
T/C (dose: 0.09 mg/kg/injection, schedule: Q01DX009 (ip), vehicle: Klucel (hydroxypropylcellulose) (HPC)): 109 % of control [survivor count not shown]
T/C (dose: 0.19 mg/kg/injection, schedule: Q01DX009 (ip), vehicle: Klucel (hydroxypropylcellulose) (HPC)): 112 % of control [survivor count not shown]
T/C (dose: 0.37 mg/kg/injection, schedule: Q01DX009 (ip), vehicle: Klucel (hydroxypropylcellulose) (HPC)): 93 % of control [survivor count not shown]
T/C (dose: 0.75 mg/kg/injection, schedule: Q01DX009 (ip), vehicle: Klucel (hydroxypropylcellulose) (HPC)): 87 % of control [survivor count not shown]
T/C (dose: 0.78 mg/kg/injection, schedule: Q01DX009 (ip), vehicle: Klucel (hydroxypropylcellulose) (HPC)): 157 % of control [survivor count not shown]
T/C (dose: 1.5 mg/kg/injection, schedule: Q01DX009 (ip), vehicle: Klucel (hydroxypropylcellulose) (HPC)): 101 % of control [survivor count not shown]
T/C (dose: 1.56 mg/kg/injection, schedule: Q01DX009 (ip), vehicle: Klucel (hydroxypropylcellulose) (HPC)): 175 % of control [survivor count not shown]
T/C (dose: 3.0 mg/kg/injection, schedule: Q01DX009 (ip), vehicle: Klucel (hydroxypropylcellulose) (HPC)): 88 % of control [survivor count not shown]
T/C (dose: 3.12 mg/kg/injection, schedule: Q01DX009 (ip), vehicle: Klucel (hydroxypropylcellulose) (HPC)): 175 % of control [survivor count not shown]
T/C (dose: 6.0 mg/kg/injection, schedule: Q01DX009 (ip), vehicle: Klucel (hydroxypropylcellulose) (HPC)): 107 % of control [survivor count not shown]
T/C (dose: 6.25 mg/kg/injection, schedule: Q01DX009 (ip), vehicle: Klucel (hydroxypropylcellulose) (HPC)): 210 % of control [survivor count not shown]

O=C(O)C(Cc1ccccc1)N(CCCl)CCCl (stereo unspecified)
T/C (dose: 1.56 mg/kg/injection, schedule: Q04DX003 (ip), vehicle: saline with Tween-80): 140 % of control [survivor count not shown]
T/C (dose: 3.13 mg/kg/injection, schedule: Q04DX003 (ip), vehicle: saline with Tween-80): 154 % of control [survivor count not shown]
T/C (dose: 4.0 mg/kg/injection, schedule: Q04DX003 (ip), vehicle: saline with Tween-80): 158 % of control [survivor count not shown]
T/C (dose: 6.0 mg/kg/injection, schedule: Q04DX003 (ip), vehicle: saline with Tween-80): 166 % of control [survivor count not shown]
T/C (dose: 6.25 mg/kg/injection, schedule: Q04DX003 (ip), vehicle: saline with Tween-80): 209 % of control [survivor count not shown]
T/C (dose: 9.0 mg/kg/injection, schedule: Q04DX003 (ip), vehicle: saline with Tween-80): 162 % of control [survivor count not shown]

ClCCN(CCCl)Cc1ccc(Cl)cc1
T/C (dose: 0.29 mg/kg/injection, schedule: Q01DX009 (ip), vehicle: saline): 113 % of control [survivor count not shown]
T/C (dose: 0.44 mg/kg/injection, schedule: Q01DX009 (ip), vehicle: saline): 127 % of control [survivor count not shown]
T/C (dose: 0.68 mg/kg/injection, schedule: Q01DX009 (ip), vehicle: saline): 127 % of control [survivor count not shown]
T/C (dose: 1.0 mg/kg/injection, schedule: Q01DX009 (ip), vehicle: saline): 136 % of control [survivor count not shown]
T/C (dose: 1.3 mg/kg/injection, schedule: Q04DX003 (ip), vehicle: saline): 104 % of control [survivor count not shown]
T/C (dose: 1.56 mg/kg/injection, schedule: Q01DX009 (ip), vehicle: saline): 159 % of control [survivor count not shown]
T/C (dose: 2.0 mg/kg/injection, schedule: Q04DX003 (ip), vehicle: saline): 104 % of control [survivor count not shown]
T/C (dose: 3.1 mg/kg/injection, schedule: Q04DX003 (ip), vehicle: saline): 130 % of control [survivor count not shown]
T/C (dose: 3.12 mg/kg/injection, schedule: Q01DX009 (ip), vehicle: saline): 150 % of control [survivor count not shown]
T/C (dose: 4.1 mg/kg/injection, schedule: Q01DX009 (ip), vehicle: saline): 150 [survivor count not shown] and 170 % of control [survivor count not shown]
T/C (dose: 4.7 mg/kg/injection, schedule: Q04DX003 (ip), vehicle: saline): 135 % of control [survivor count not shown]
T/C (dose: 6.25 mg/kg/injection, schedule: Q01DX009 (ip), vehicle: saline): 150 [survivor count not shown], 168 [survivor count not shown], 190 % of control [survivor count not shown]
T/C (dose: 7.2 mg/kg/injection, schedule: Q04DX003 (ip), vehicle: saline): 141 % of control [survivor count not shown]
T/C (dose: 9.3 mg/kg/injection, schedule: Q01DX009 (ip), vehicle: saline): 130 [survivor count not shown] and 181 % of control [survivor count not shown]
T/C (dose: 10.0 mg/kg/injection, schedule: Q04DX003 (ip), vehicle: saline): 158 % of control [survivor count not shown]
T/C (dose: 12.5 mg/kg/injection, schedule: Q01DX009 (ip), vehicle: saline): 107 % of control [survivor count not shown]
T/C (dose: 16.5 mg/kg/injection, schedule: Q04DX003 (ip), vehicle: saline): 160 [survivor count not shown] and 227 % of control [survivor count not shown]
T/C (dose: 25.0 mg/kg/injection, schedule: Q04DX003 (ip), vehicle: saline): 190 [survivor count not shown] and 238 % of control [survivor count not shown]
T/C (dose: 37.5 mg/kg/injection, schedule: Q04DX003 (ip), vehicle: saline): 122 [survivor count not shown] and 185 % of control [survivor count not shown]

ClCCN(CCCl)Cc1nc2ccc(Cl)cc2[nH]1
T/C (dose: 1.1 mg/kg/injection, schedule: Q01DX009 (ip), vehicle: Klucel (hydroxypropylcellulose) (HPC)): 104 % of control [survivor count not shown]
T/C (dose: 1.7 mg/kg/injection, schedule: Q01DX009 (ip), vehicle: Klucel (hydroxypropylcellulose) (HPC)): 109 % of control [survivor count not shown]
T/C (dose: 2.7 mg/kg/injection, schedule: Q01DX009 (ip), vehicle: Klucel (hydroxypropylcellulose) (HPC)): 125 % of control [survivor count not shown]
T/C (dose: 4.0 mg/kg/injection, schedule: Q01DX009 (ip), vehicle: Klucel (hydroxypropylcellulose) (HPC)): 120 % of control [survivor count not shown]
T/C (dose: 6.18 mg/kg/injection, schedule: Q01DX009 (ip), vehicle: Klucel (hydroxypropylcellulose) (HPC)): 122 [survivor count not shown] and 163 % of control [survivor count not shown]
T/C (dose: 9.37 mg/kg/injection, schedule: Q01DX009 (ip), vehicle: Klucel (hydroxypropylcellulose) (HPC)): 145 [survivor count not shown], 172 [survivor count not shown], 177 % of control [survivor count not shown]
T/C (dose: 14.0 mg/kg/injection, schedule: Q01DX009 (ip), vehicle: Klucel (hydroxypropylcellulose) (HPC)): 86 [survivor count not shown] and 145 % of control [survivor count not shown]
T/C (dose: 18.75 mg/kg/injection, schedule: Q04DX003 (ip), vehicle: Klucel (hydroxypropylcellulose) (HPC)): 100 % of control [survivor count not shown]
T/C (dose: 37.5 mg/kg/injection, schedule: Q04DX003 (ip), vehicle: Klucel (hydroxypropylcellulose) (HPC)): 111 % of control [survivor count not shown]
